# Measurements from publication doi:10.1101/2024.10.10.617637.
# By UniProt entry, the sequences of proteins in these tests, tags left out.
# UniProt P20042: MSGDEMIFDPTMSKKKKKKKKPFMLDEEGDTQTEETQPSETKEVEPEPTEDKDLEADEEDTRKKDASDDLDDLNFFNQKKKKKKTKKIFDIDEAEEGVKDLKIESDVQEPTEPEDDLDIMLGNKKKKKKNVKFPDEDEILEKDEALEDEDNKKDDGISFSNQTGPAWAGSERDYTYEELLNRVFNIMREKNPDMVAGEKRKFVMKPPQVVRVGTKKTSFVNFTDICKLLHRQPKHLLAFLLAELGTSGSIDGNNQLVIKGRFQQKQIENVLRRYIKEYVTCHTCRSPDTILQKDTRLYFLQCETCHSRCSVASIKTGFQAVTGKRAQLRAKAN
# UniProt P06730: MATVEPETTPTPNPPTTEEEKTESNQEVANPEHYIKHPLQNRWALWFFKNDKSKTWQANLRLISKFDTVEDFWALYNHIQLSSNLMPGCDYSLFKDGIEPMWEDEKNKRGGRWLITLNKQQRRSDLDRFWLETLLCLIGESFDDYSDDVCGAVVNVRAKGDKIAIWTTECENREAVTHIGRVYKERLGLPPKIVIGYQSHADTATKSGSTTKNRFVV
# UniProt P60842: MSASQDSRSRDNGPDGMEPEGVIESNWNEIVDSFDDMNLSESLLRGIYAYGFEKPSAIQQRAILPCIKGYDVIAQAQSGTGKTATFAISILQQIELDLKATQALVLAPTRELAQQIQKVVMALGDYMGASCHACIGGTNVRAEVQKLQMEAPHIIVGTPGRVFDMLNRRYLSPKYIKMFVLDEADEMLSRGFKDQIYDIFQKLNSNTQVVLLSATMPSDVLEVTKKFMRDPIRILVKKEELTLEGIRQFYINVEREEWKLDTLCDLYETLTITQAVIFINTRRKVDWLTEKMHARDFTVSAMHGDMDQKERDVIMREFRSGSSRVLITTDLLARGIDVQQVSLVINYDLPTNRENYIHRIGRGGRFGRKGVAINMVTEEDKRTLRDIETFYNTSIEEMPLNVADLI
# UniProt P04406: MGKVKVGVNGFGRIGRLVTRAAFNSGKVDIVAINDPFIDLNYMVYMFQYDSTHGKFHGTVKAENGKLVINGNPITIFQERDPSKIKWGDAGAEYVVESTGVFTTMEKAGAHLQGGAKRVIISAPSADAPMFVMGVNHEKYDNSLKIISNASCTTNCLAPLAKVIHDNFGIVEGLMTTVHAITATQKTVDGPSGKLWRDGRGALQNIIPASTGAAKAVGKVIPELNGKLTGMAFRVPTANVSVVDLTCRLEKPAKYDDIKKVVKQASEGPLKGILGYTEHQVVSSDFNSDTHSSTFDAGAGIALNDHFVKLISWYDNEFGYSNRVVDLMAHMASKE
# UniProt O75643: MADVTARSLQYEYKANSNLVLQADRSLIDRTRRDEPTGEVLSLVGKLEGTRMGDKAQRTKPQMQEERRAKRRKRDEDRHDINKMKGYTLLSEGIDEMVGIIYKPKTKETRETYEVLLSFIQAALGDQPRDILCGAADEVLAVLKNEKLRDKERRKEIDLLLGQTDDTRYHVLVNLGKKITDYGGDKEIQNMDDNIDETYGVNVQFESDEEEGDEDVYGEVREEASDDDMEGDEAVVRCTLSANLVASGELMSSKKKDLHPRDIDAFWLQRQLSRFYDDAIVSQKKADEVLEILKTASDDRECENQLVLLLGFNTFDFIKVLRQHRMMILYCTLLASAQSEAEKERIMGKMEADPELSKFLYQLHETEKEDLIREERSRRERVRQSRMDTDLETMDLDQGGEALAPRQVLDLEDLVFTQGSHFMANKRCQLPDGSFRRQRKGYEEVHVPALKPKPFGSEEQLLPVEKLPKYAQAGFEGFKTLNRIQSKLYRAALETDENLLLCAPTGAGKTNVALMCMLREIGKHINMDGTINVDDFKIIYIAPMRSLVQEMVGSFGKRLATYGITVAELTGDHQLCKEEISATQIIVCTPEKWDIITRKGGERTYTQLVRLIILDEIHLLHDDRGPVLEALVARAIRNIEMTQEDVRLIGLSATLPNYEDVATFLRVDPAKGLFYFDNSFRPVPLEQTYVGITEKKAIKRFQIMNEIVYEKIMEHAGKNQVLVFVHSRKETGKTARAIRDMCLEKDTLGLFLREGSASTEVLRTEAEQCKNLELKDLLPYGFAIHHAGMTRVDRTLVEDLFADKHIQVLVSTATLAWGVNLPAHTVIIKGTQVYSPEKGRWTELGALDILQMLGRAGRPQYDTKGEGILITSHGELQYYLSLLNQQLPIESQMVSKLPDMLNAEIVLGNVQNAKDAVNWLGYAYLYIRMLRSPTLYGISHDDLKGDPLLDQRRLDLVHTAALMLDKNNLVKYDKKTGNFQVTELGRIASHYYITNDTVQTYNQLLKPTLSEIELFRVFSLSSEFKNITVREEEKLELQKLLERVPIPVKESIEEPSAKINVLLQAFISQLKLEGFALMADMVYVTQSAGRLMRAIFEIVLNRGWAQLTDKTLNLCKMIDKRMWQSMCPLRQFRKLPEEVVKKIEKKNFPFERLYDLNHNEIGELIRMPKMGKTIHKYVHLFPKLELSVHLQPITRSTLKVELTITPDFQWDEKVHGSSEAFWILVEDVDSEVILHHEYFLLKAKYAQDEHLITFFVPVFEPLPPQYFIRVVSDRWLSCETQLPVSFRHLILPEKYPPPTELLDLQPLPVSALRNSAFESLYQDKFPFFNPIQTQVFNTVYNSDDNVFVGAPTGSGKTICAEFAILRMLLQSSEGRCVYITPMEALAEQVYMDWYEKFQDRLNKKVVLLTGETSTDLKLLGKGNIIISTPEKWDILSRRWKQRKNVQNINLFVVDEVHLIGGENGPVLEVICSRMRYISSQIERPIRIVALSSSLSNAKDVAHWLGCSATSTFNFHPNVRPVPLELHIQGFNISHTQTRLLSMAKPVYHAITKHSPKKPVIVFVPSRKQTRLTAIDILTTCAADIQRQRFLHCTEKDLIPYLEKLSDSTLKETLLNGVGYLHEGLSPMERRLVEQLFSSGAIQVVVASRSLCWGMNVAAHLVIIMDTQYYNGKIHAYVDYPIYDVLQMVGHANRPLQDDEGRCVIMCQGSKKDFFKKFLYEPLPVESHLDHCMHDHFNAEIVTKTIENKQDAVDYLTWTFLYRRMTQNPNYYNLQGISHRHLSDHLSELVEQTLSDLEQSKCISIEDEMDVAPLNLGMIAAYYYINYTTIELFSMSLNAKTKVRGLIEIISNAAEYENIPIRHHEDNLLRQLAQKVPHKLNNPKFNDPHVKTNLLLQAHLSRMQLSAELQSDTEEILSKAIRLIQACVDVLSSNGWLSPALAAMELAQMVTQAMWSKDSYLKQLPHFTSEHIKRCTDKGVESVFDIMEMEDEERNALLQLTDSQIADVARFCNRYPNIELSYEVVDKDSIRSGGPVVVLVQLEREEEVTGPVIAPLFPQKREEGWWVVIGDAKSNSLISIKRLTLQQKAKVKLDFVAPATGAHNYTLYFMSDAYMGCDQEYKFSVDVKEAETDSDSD
# These are yes or no findings as the source states them, for the method shown. Binding seen in cells or lysates may run through a third protein. Some binding calls cover weakened binding; strength is not graded here. For some of these results: Sequences can lack the tags named with a protein.
# Target: T1, RBM42 (RNA binding motif protein 42), endogenous (human (endogenous in Panc-1)) (UniProt Q9BTD8)
# T1 sequence: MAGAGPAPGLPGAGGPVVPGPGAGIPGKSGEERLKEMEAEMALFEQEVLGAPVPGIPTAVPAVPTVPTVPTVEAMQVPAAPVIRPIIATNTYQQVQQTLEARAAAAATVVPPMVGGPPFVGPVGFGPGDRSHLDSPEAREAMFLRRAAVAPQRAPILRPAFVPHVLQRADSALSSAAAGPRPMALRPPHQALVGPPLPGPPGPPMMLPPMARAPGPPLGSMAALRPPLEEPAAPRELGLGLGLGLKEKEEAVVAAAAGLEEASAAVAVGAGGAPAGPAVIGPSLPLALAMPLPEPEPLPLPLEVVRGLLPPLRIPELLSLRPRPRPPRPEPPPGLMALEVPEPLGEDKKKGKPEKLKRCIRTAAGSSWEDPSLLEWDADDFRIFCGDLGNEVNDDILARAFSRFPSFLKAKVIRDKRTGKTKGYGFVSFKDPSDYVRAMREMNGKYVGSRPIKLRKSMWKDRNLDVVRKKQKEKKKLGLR
# Experiment: proximity ligation
row,Substance,binding
1,eIF2β (from UniProt P20042 1-333),binds

# Target: T2, RBM42-HA (human) (UniProt Q9BTD8)
# T2 sequence: T1 sequence
# Experiment: co-IP
row,Substance,binding
1,eIF4E (from UniProt P06730 1-217),binds weakly
2,eIF4A1 (from UniProt P60842 1-406),binds weakly
3,eIF2β (from UniProt P20042 1-333),binds
4,EGFR (from UniProt P00533 25-1210) (receptor),no binding
5,GAPDH (from UniProt P04406 1-335) (enzyme),no binding
6,SNRNP200 (from UniProt O75643 1-2136),binds
